Values from PubChem BioAssay AID1224826 (NIAID, 2016).
Assay: 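Knock-downs that raise or lower Tnf reporter signal after endotoxin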 (primary screen). System: RAW264.7 G9 macrophages from mouse bearing reporters for p65 (GFP) and the Tnf promoter (mCherry). Knock-down reagent: siRNA pool against mouse genes, 100 nM. Timing: 16 h of LPS stimulation, after 2 days of siRNA transfection. Treatment: bacterial lipopolysaccharide (Salmonella minnesota R595), 10 ng/ml. Detection: 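Nuclear mCherry signal of the Tnf promoter reporter measured by imaging after background removal, scaled to each plate median and turned into robust z-scores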. Direction: Tnf reporter robust z-score: higher = stronger Tnf promoter reporter signal after LPS; Tnf reporter intensity: higher = stronger Tnf promoter reporter signal. Rule for the call: 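Called active when robust z-score is at most -1.3, matching the median of the Tlr4 knock-down control, or over 3; control wells and wells with under 50 cells never active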. Calls: active = Tnf reporter clearly lowered or raised; inactive = no clear change in Tnf reporter.
This is a random part of about 17,000 reagents. About 1,110 of all reagents (6.6%) were called active. 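Active means lowered or raised reporter signal; replicate intensities are raw and not normalised per plate.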 Not all columns of the deposit are shown.

no.	target gene	Tnf reporter robust z-score	fewer than 50 cells in well	Tnf reporter intensity, replicate 1	call
1	Asns (asparagine synthetase)		fewer than 50 cells per well; well left out of calls	52.2	inactive
2	BC051665 (cDNA sequence BC051665)	3.16	enough cells in well	290	active
3	Or4c114 (olfactory receptor family 4 subfamily C member 114)	0.91	enough cells in well	211	inactive
4	Egfl8 (EGF-like domain 8)	0.68	enough cells in well	267	inactive
5	Or51t4 (olfactory receptor family 51 subfamily T member 4)		fewer than 50 cells per well; well left out of calls	57.6	inactive
6	Defb12 (defensin beta 12)		fewer than 50 cells per well; well left out of calls	130	inactive
7	Odf4 (outer dense fiber of sperm tails 4)	-0.93	enough cells in well	131	inactive
8	Or4a72 (olfactory receptor family 4 subfamily A member 72)	2.55	enough cells in well	339	inactive
9	Nrde2 (nrde-2 necessary for RNA interference, domain containing)	1.52	enough cells in well	260	inactive
10	Mrpl18 (mitochondrial ribosomal protein L18)	0.14	enough cells in well	172	inactive
11	Gstt4 (glutathione S-transferase, theta 4)		fewer than 50 cells per well; well left out of calls	162	inactive
12	Or51a25 (olfactory receptor family 51 subfamily A member 25)		fewer than 50 cells per well; well left out of calls	49.8	inactive
13	Cdk6 (cyclin dependent kinase 6)	-0.26	enough cells in well	181	inactive
14	Psmb11 (proteasome (prosome, macropain) subunit, beta type, 11)	1.2	enough cells in well	251	inactive
15	Abhd15 (abhydrolase domain containing 15)		fewer than 50 cells per well; well left out of calls	181	inactive
16	Dmrt1 (doublesex and mab-3 related transcription factor 1)	0.4	enough cells in well	253	inactive
17	Mis18bp1 (MIS18 binding protein 1)	-0.07	enough cells in well	113	inactive
18	Rnf128 (ring finger protein 128)	-0.41	enough cells in well	115	inactive
19	5730596B20Rik (RIKEN cDNA 5730596B20 gene)	-1.1	enough cells in well	112	inactive
20	Ndufs1 (NADH:ubiquinone oxidoreductase core subunit S1)	0.03	enough cells in well	241	inactive

Reformatted: results already given
Psmb11 (proteasome (prosome, macropain) subunit, beta type, 11)
- Tnf reporter robust z-score: 1.2
- fewer than 50 cells in well: enough cells in well
- Tnf reporter intensity, replicate 1: 251
- call: inactive

Abhd15 (abhydrolase domain containing 15)
- fewer than 50 cells in well: fewer than 50 cells per well; well left out of calls
- Tnf reporter intensity, replicate 1: 181
- call: inactive

Dmrt1 (doublesex and mab-3 related transcription factor 1)
- Tnf reporter robust z-score: 0.4
- fewer than 50 cells in well: enough cells in well
- Tnf reporter intensity, replicate 1: 253
- call: inactive

Mis18bp1 (MIS18 binding protein 1)
- Tnf reporter robust z-score: -0.07
- fewer than 50 cells in well: enough cells in well
- Tnf reporter intensity, replicate 1: 113
- call: inactive

Rnf128 (ring finger protein 128)
- Tnf reporter robust z-score: -0.41
- fewer than 50 cells in well: enough cells in well
- Tnf reporter intensity, replicate 1: 115
- call: inactive

5730596B20Rik (RIKEN cDNA 5730596B20 gene)
- Tnf reporter robust z-score: -1.1
- fewer than 50 cells in well: enough cells in well
- Tnf reporter intensity, replicate 1: 112
- call: inactive

Ndufs1 (NADH:ubiquinone oxidoreductase core subunit S1)
- Tnf reporter robust z-score: 0.03
- fewer than 50 cells in well: enough cells in well
- Tnf reporter intensity, replicate 1: 241
- call: inactive

More results follow:
no.	target gene	Tnf reporter robust z-score	fewer than 50 cells in well	Tnf reporter intensity, replicate 1	call
21	Sar1a (secretion associated Ras related GTPase 1A)	-0.25	enough cells in well	138	inactive
22	Spns2 (SPNS lysolipid transporter 2, sphingosine-1-phosphate)	0.13	enough cells in well	194	inactive
23	Pramel7 (PRAME like 7)	0.72	enough cells in well	154	inactive
24	Slco4a1		fewer than 50 cells per well; well left out of calls	30	inactive
25	Apobec3	0.04	enough cells in well	166	inactive
26	Psg16 (pregnancy specific beta-1-glycoprotein 16)	-0.54	enough cells in well	101	inactive
27	Ccdc63 (coiled-coil domain containing 63)		fewer than 50 cells per well; well left out of calls	167	inactive
28	B4galt7 (beta-1,4-galactosyltransferase 7)	-0.45	enough cells in well	123	inactive
29	Il1b (interleukin 1 beta)		fewer than 50 cells per well; well left out of calls	217	inactive
30	Clcf1 (cardiotrophin-like cytokine factor 1)		fewer than 50 cells per well; well left out of calls	84.7	inactive
31	Zfp879 (zinc finger protein 879)	-0.12	enough cells in well	182	inactive
32	Chrdl1 (chordin-like 1)	0.39	enough cells in well	189	inactive
33	Tpi1 (triosephosphate isomerase 1)	-1.16	enough cells in well	178	inactive
34	Golm2 (golgi membrane protein 2)	0.05	enough cells in well	204	inactive
35	Pabir2 (PABIR family member 2)	-0.68	enough cells in well	135	inactive
36	Scpep1 (serine carboxypeptidase 1)	-0.56	enough cells in well	109	inactive
37	Plxnc1 (plexin C1)	-0.77	enough cells in well	184	inactive
38	Aqp7 (aquaporin 7)	-1.13	enough cells in well	105	inactive
39	4933436E20Rik (retired record)	-0.69	enough cells in well	147	inactive
40	Frrs1 (ferric-chelate reductase 1)	1.31	enough cells in well	213	inactive
41	Ctsw (cathepsin W)	3.18	enough cells in well	485	active
42	Or14j5 (olfactory receptor family 14 subfamily J member 5)	0.36	enough cells in well	213	inactive
43	Zfp647 (zinc finger protein 647)		fewer than 50 cells per well; well left out of calls	195	inactive
44	Slfn3 (schlafen 3)		fewer than 50 cells per well; well left out of calls	31.2	inactive
45	Ermn (ermin, ERM-like protein)	0.26	enough cells in well	169	inactive
46	Utp15 (UTP15 small subunit processome component)	-0.39	enough cells in well	173	inactive
47	Rassf3 (Ras association (RalGDS/AF-6) domain family member 3)	-0.69	enough cells in well	109	inactive
48	Pgm5 (phosphoglucomutase 5)	1.05	enough cells in well	181	inactive
49	Pkib		fewer than 50 cells per well; well left out of calls	161	inactive
50	Ly6g6g (lymphocyte antigen 6 family member G6G)	-0.91	enough cells in well	151	inactive
51	Myo9a (myosin IXa)		fewer than 50 cells per well; well left out of calls	187	inactive
52	Pramel12 (PRAME like 12)		fewer than 50 cells per well; well left out of calls	120	inactive
53	Eif5a2 (eukaryotic translation initiation factor 5A2)	-0.97	enough cells in well	112	inactive
54	Tlr3 (toll-like receptor 3)	-0.68	enough cells in well	138	inactive
55	Mark4 (MAP/microtubule affinity regulating kinase 4)	0.5	enough cells in well	213	inactive
56	Recql (RecQ protein-like)	1	enough cells in well	400	inactive
57	Angpt4 (angiopoietin 4)	0.85	enough cells in well	253	inactive
58	Ppip5k1 (diphosphoinositol pentakisphosphate kinase 1)	0.82	enough cells in well	282	inactive
